The text below walks through data of paper doi:10.1101/2022.08.04.502763.

For the experiment, the target named is VERNALIZATION5/VIN3-LIKE 3 (VEL3), yeast two-hybrid fusion (Arabidopsis thaliana). As to the kind of experiment: two-hybrid.

No constants are given. Whether binding was seen depends on the method and setting. Sequences can lack the tags named with a protein.

B1: HD2C, yeast two-hybrid fusion (protein, UniProt Q9LZR5 1-294)
chain: MEFWGVEVKNGKPLHLDPGLDRLVHISQVALGESKNNVTEPIQLYVTVGSDKLLIGTLSHEKFPQLSTEIVLERNFALSHTWKNGSVFFSGYKVDASDPEPEDLIDDQLEAAGFKAAPKSAAKQVNFQLPNEDVKAKQDDDADGSEEDSSDDDDSENSGDEEEEKVTAESDSEEDDSSDDEEDDSSEEETPKKPEEPKKRSAEPNSSKNPASNKKAKFVTPQKTDSKKPHVHVATPHPSKQAGKNSGGGSTGETSKQQQTPKSAGAFGCKSCTRTFTSEMGLQSHTKAKHSAAA
B1: the binding result was “no binding”.
